Data from paper PMC8715634.
These are yes or no findings as the source states them, for the method shown. In cells and extracts the contact can be indirect. Here binding means that the protein was enriched with, or labelled near, the bait; the list need not be complete. Where a sequence is shown, tags or fusion partners need not be part of it.

T1: FLAG-hANO5-BioID2 (human) (UniProt Q75V66)
T1 sequence: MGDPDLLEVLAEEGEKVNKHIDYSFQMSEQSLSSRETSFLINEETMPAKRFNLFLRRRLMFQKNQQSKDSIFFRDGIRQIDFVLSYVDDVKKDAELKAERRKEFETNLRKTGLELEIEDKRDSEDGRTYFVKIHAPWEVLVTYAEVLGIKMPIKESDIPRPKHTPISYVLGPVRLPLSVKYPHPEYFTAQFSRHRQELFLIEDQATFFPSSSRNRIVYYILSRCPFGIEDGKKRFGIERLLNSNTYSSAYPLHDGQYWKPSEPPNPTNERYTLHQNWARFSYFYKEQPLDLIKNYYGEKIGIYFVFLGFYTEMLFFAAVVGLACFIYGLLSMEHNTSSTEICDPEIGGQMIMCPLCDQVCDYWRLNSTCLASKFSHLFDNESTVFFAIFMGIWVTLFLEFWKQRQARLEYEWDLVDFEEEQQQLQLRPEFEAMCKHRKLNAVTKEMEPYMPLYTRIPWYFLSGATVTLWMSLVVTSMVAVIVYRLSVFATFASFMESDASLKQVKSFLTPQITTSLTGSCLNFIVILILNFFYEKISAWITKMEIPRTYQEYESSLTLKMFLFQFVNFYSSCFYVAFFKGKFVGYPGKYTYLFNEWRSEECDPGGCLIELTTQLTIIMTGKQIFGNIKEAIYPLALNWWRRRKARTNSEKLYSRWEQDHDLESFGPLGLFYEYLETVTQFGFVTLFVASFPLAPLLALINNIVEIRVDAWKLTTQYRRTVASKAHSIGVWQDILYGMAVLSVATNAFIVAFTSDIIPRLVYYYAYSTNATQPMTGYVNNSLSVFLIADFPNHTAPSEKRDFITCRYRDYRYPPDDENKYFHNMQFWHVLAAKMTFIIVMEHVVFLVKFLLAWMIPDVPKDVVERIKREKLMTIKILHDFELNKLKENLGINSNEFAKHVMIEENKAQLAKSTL

B1: BVES, endogenous in C2C12 (protein, UniProt Q9ES83 1-358)
chain: MNSTESIPLAQSTVAGFTSELESLTPVPSNETTCENWREIHHLVFHVANVCFAVGLLIPTTLHLHMILLRVMLSLGCTLYVVWATLYRCALDVMIWNSVFLGINILHLSYLLYKKRPVKIEKELGGVYHRLFEPLRVPPDLFRRLTGQFCMIQTLKRGQVYATEDKTSVDDRLSILLKGRMKVSYRGHFLHNIYPCAFIDSPEFRSTQMHKGEKFQVTIVADDNCRFLCWSRERLTYFLESEPFLYEIFRYLIGKDITNKLYSLNDPTLNDKKVKKLEPQMSLCTQISMLEMRNSITSSSDGEDGLHHFLRGSSSTASLPMSSPQQRASAKMKPIEEGVEDDDEVFVSPDALKVHQLP
B2: POPDC3, endogenous in C2C12 (protein, UniProt Q9ES81 1-291)
chain: MEKNSSLWKSLVTEHPLCTTWKQEAEGAIYHLASILFVVGFMGGSGFFGLLYVFSLLGLGFLSSAVWAWVDICAADIFSWNFVLFVICFMQFVHIAYQVHSITFARDFHVLYSSLFKPLGIPLPVFRTIALSSEVVSLEKEHCYAMQGKTSIDRLSVLISGRIRVTVDGEFLHYISPFQFLDSPEWDSLRPTEEGIFQVTLTADTDCRYVSWRRKKLYLLFAQHRYISRLFSVLIGSDIADKLYALNDRVYIGKKHHYDIRLPNYYHMSTPDLSRSPLTEQFRNSRQHCNK

Molecular target: T1, FLAG-hANO5-BioID2 (human)
Experiment: proximity labelling; BioID2; C2C12 myotubes stably expressing the BioID2 fusion, 50 uM biotin for 16 h; biotinylated proteins isolated on streptavidin magnetic beads and identified by mass spectrometry (minimum 2 unique peptides, FDR below 1.0%)

binding | Binder
binds | B1
binds | B2
